Record: PubChem BioAssay AID1259314 (Drosophila RNAi Screening Center, 2017)

- Purpose: 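Modifiers of manganese chloride toxicity in fly cells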 (primary screen)
- Cell system: Drosophila S2R+ cells
- Knock-down reagent: long dsRNA against Drosophila genes
- Duration: 5 days (4 days knock-down, then 1 day metal exposure)
- Challenge: manganese chloride added to 15 mM for 24 hours
- Measurement: 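Cellular ATP measured by luciferase light, scaled to the plate mean, averaged across replicates and z-scored over plates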
- Reading the numbers: mean ATP z-score: higher = more ATP than the plate average, more viable cells under manganese
- Call rule: 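a mean ATP z-score past 1.5 in either direction is called active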
- Meaning of the calls: active = strong ATP change, up or down; inactive = no strong ATP change
The deposit covers about 3,100 reagents; shown is an unselected part. Of all reagents, 289 (9.3%) are marked active. 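Active includes both higher and lower ATP than plate average; check the z-score sign for direction.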 Names joined by + are all predicted targets of the reagent. No sequences are given here. Not stated in the record: the amount of reagent.

| Gene | DRSC id | mean ATP z-score | outcome |
| --- | --- | --- | --- |
| eloF | DRSC15162 | 0.0953 | inactive |
| eloF | DRSC25406 | 0.738 | inactive |
| Nrx-1 | DRSC16184 | -0.568 | inactive |
| ATP7 | DRSC19819 | -0.0376 | inactive |
| ATP7 | DRSC39460 | -0.898 | inactive |
| Vha100-4 | DRSC16282 | 0.183 | inactive |
| Vha100-4 | DRSC26139 | 1 | inactive |
| PIG-N | DRSC06837 | -0.314 | inactive |
| Tyler + Shawn | DRSC19564 | -0.0837 | inactive |
| Tyler + Shawn | DRSC19565 | 0.12 | inactive |
| CG31454 | DRSC22801 | 0.661 | inactive |
| CG31454 | DRSC24377 | -0.61 | inactive |
| emp | DRSC04019 | 0.589 | inactive |
| emp | DRSC04683 | -0.258 | inactive |
| otk | DRSC07658 | -0.224 | inactive |
| otk | DRSC29192 | 1.45 | inactive |
| otk | DRSC36649 | -0.063 | inactive |
| otk | DRSC36650 | 0.276 | inactive |
| bumpel | DRSC16100 | 0.299 | inactive |
| PGRP-SB2 | DRSC11092 | -0.216 | inactive |
| nrv3 | DRSC03097 | 1.86 | active |
| CG33296 | DRSC00998 | 0.102 | inactive |
| CG33296 | DRSC23839 | 1.52 | active |
| Gr93a | DRSC14593 | -0.523 | inactive |
| Gr93a | DRSC39755 | -0.516 | inactive |
| PlexB | DRSC17177 | -0.253 | inactive |
| Vha16-2 | DRSC10873 | -0.719 | inactive |
| Vha16-2 | DRSC25504 | 1.33 | inactive |
| Ir7e | DRSC18011 | 0.418 | inactive |
| ACXD | DRSC23762 | -0.022 | inactive |
| CG12531 | DRSC19466 | -0.0895 | inactive |
| CG12531 | DRSC27679 | -0.293 | inactive |
| Desat1 | DRSC23578 | -3.51 | active |
| stnA + stnB | DRSC20969 | 0.378 | inactive |
| stnA + stnB | DRSC21112 | -0.0513 | inactive |
| stnA + stnB | DRSC21113 | -0.445 | inactive |
| MFS18 | DRSC00452 | -0.199 | inactive |
| MFS18 | DRSC39625 | -0.529 | inactive |
| TM9SF3 | DRSC09747 | -1.18 | inactive |
| eag | DRSC19067 | -0.0959 | inactive |
| eag | DRSC20328 | -0.139 | inactive |
| eag | DRSC28295 | -0.631 | inactive |
| smo | DRSC00837 | 5.12 | active |
| smo | DRSC28492 | 1.31 | inactive |
| BI-1 | DRSC10782 | -0.153 | inactive |
| BI-1 | DRSC39448 | 0.388 | inactive |
| Or63a | DRSC08681 | -0.342 | inactive |
| boss | DRSC16916 | -0.426 | inactive |
| boss | DRSC25941 | 0.92 | inactive |
| Ctl2 | DRSC29712 | -0.304 | inactive |
| Ephrin | DRSC17165 | 0.457 | inactive |
| Ephrin | DRSC39417 | 0.33 | inactive |
| Ephrin | DRSC39418 | -0.726 | inactive |
| Tsp47F | DRSC07325 | -1.17 | inactive |
| Gr85a | DRSC12760 | -0.458 | inactive |
| Gr85a | DRSC39653 | -0.587 | inactive |
| MFS12 | DRSC07268 | -0.878 | inactive |
| TkR86C | DRSC16880 | 0.61 | inactive |
| Tehao | DRSC03449 | -0.0502 | inactive |
| Tehao | DRSC39803 | 0.133 | inactive |
| AstA-R2 | DRSC24820 | 0.0368 | inactive |
| CG1494 | DRSC20509 | -0.559 | inactive |
| Gli | DRSC03332 | -0.182 | inactive |
| Gli | DRSC39818 | -0.307 | inactive |
| CG31693 | DRSC03674 | 0.146 | inactive |
| CG31693 | DRSC39586 | 0.061 | inactive |
| JTBR | DRSC08667 | -0.322 | inactive |
| Oatp58Db | DRSC04364 | 0.0188 | inactive |
| CG18549 | DRSC15347 | -0.23 | inactive |
| CG18549 | DRSC28847 | -0.321 | inactive |
| Vmat | DRSC22223 | -0.751 | inactive |
| anchor | DRSC10861 | 0.278 | inactive |
| CG31358 + CG42505 + CG42504 | DRSC15235 | -0.894 | inactive |
| CG31358 + CG42505 + CG42504 | DRSC15308 | -1.22 | inactive |
| CG31358 + CG42505 + CG42504 | DRSC15309 | -0.497 | inactive |
| CngA | DRSC07362 | 0.29 | inactive |
| Efr | DRSC18322 | -0.238 | inactive |
| Efr | DRSC26945 | -0.178 | inactive |
| OstDelta | DRSC06980 | 0.0658 | inactive |
| OstDelta | DRSC27205 | -1.46 | inactive |
| Dop2R | DRSC20683 | -1.6 | active |
| Dop2R | DRSC29286 | -0.5 | inactive |
| rho-6 | DRSC02588 | 1.01 | inactive |
| rho-6 | DRSC29070 | 0.984 | inactive |
| DAT | DRSC07394 | -0.0271 | inactive |
| ATP6AP2 | DRSC16420 | -0.351 | inactive |
| ATP6AP2 | DRSC39882 | -0.453 | inactive |
| CG14195 | DRSC19550 | -0.0259 | inactive |
| CG14195 | DRSC39887 | -0.655 | inactive |
| Or85d | DRSC16767 | -0.199 | inactive |
| Or85d | DRSC26656 | 0.721 | inactive |
| ort | DRSC16240 | 0.439 | inactive |
| ort | DRSC39620 | 0.083 | inactive |
| CG12061 | DRSC20715 | 0.736 | inactive |
| CG12061 | DRSC39829 | -0.923 | inactive |
| Yif1 | DRSC15817 | 0.00975 | inactive |
| Octbeta3R | DRSC21853 | 0.712 | inactive |
| Octbeta3R | DRSC25327 | -0.355 | inactive |
| Tret1-1 | DRSC07046 | -0.485 | inactive |
| Tret1-1 | DRSC25701 | -0.00471 | inactive |
| Gr64f | DRSC08447 | -1.37 | inactive |
| Gr64f | DRSC25964 | -2.41 | active |
| Ptp10D | DRSC20272 | -0.44 | inactive |
| Ptp10D | DRSC36634 | -0.226 | inactive |
| Ptp10D | DRSC36635 | 0.29 | inactive |
| Ca-alpha1T | DRSC17842 | 0.69 | inactive |
| Ca-alpha1T | DRSC18357 | 0.221 | inactive |
| Ca-alpha1T | DRSC21430 | 1.2 | inactive |
| CG42594 | DRSC18408 | 0.717 | inactive |
| CG42594 | DRSC28979 | -0.978 | inactive |

Part of the list above, reformatted:
Gene	DRSC id	mean ATP z-score	outcome
ATP7	DRSC19819	-0.0376	inactive
ATP7	DRSC39460	-0.898	inactive
Vha100-4	DRSC16282	0.183	inactive
Vha100-4	DRSC26139	1	inactive
PIG-N	DRSC06837	-0.314	inactive
Tyler + Shawn	DRSC19564	-0.0837	inactive
